In US5525503A, “Signal transduction via CD28” (priority 1993, dated 1996):
Part of at least one peptide drawing is inferred or uncertain, most often the ends. No end group written: not given here.

Sequences of proteins named here, by UniProt entry; tags and fusion partners are left off.
UniProt P27986, whole entry: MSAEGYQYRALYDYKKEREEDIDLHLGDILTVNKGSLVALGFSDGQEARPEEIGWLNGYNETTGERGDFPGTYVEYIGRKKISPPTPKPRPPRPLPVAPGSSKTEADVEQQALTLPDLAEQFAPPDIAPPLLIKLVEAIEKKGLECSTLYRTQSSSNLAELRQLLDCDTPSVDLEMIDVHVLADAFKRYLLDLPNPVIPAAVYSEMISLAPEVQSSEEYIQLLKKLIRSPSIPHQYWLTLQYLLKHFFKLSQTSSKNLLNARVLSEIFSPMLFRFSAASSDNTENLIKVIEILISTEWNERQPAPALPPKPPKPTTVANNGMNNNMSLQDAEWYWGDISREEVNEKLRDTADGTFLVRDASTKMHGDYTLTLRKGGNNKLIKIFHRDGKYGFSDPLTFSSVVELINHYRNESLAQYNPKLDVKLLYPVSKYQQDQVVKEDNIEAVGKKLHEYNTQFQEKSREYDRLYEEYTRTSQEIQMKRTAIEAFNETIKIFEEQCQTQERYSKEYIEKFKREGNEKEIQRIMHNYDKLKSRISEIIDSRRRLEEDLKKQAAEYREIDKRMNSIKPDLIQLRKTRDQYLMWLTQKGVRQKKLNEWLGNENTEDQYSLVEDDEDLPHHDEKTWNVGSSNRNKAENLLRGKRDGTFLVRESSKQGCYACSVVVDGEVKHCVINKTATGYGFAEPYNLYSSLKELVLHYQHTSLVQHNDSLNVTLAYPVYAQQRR

Molecular target: association of PI 3-kinase with CD28 (Homo sapiens, UniProt P27986)
Assay: Peptide competition: displacement of PI 3-kinase from CD28 (anti-CD28 immunoprecipitation, anti-p85 immunoblotting)
Type: binding
Settings: lysate incubated with peptide, anti-p85 immunoblot

HSDYMNMTPRR [His-Ser-Asp-Tyr-Met-Asn-Met-Thr-Pro-Arg-Arg, reference compound]
displacement of PI 3-kinase from CD28 / blocking of association (in words): failed to block the association

EEEYMPMEDLYL [Glu-Glu-Glu-Tyr-Met-Pro-Met-Glu-Asp-Leu-Tyr-Leu, reference compound]
displacement of PI 3-kinase from CD28 / blocking of association (in words): failed to displace PI 3-kinase
